Experimental data from publication PMC3679036.
These are yes or no findings as the source states them, for the method shown. Binding seen in cells or lysates may run through a third protein. Some binding calls cover weakened binding; strength is not graded here.

Chains of the proteins cited; added tags and fusions are not shown. Lines headed by an entry give the natural chain unless they say otherwise; changes in a name come on top. A line that says so, or that is headed by a name, gives the form on record, which may keep a tag or linker.
UniProt P61586: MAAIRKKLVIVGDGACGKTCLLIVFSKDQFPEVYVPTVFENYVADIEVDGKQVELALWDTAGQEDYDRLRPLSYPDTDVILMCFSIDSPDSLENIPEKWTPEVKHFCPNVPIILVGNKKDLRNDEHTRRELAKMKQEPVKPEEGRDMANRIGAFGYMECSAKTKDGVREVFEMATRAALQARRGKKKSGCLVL
HA-tagged constitutively active RhoA (RhoA V14) (P61586, form named): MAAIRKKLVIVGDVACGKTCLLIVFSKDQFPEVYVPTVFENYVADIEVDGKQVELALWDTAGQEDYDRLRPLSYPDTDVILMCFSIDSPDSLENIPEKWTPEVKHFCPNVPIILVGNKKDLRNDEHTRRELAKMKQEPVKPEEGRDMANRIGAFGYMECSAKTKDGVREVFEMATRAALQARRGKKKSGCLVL

What was measured:
[1] = target: HA-tagged constitutively active RhoA (RhoA V14) (UniProt P61586); test: co-IP; acini expressing triple-HA-tagged CA or DN RhoA or Rac1 lysed; anti-HA agarose (clone HA-7) 1 h at 4°C; four washes in RIPA buffer; eluted with HA peptide; blot for endogenous RhoGDI1
[2] = target: HA-tagged dominant negative RhoA (RhoA N19) (UniProt P61586); test: as above
[3] = target: GST-constitutively active RhoA (pGEX-4T3-RhoA-Q63L) (UniProt P61586); test: pull-down; 50 µg purified GST-fusion protein on glutathione-Sepharose beads rotated 1 h at 4°C with precleared total lysate of mouse pancreatic acini (2000-2500 µg; 20 mM HEPES pH 7.5, 100 mM NaCl, 5 mM MgCl2, 1% Triton X-100); eluted with reduced glutathione; blot for RhoGDI1; only the target purified
[4] = target: GST-dominant negative RhoA (pGEX-2T-RhoA-T19N) (UniProt P61586); test: as above

binding [1]: no binding | binding [2]: binds | binding [3]: no binding | binding [4]: binds
B1: RhoGDI1 (endogenous, mouse pancreatic acini) (protein, UniProt Q99PT1 1-204)
chain: MAEQEPTAEQLAQIAAENEEDEHSVNYKPPAQKSIQEIQELDKDDESLRKYKEALLGRVAVSADPNVPNVIVTRLTLVCSTAPGPLELDLTGDLESFKKQSFVLKEGVEYRIKISFRVNREIVSGMKYIQHTYRKGVKIDKTDYMVGSYGPRAEEYEFLTPMEEAPKGMLARGSYNIKSRFTDDDKTDHLSWEWNLTIKKEWKD
